According to publication PMC4368516 (PLoS Neglected Tropical Diseases, 2015):
Counter-ions that a name gives are not always drawn.

By UniProt entry, the sequences of proteins in these tests, tags left out.
UniProt P21728, whole entry: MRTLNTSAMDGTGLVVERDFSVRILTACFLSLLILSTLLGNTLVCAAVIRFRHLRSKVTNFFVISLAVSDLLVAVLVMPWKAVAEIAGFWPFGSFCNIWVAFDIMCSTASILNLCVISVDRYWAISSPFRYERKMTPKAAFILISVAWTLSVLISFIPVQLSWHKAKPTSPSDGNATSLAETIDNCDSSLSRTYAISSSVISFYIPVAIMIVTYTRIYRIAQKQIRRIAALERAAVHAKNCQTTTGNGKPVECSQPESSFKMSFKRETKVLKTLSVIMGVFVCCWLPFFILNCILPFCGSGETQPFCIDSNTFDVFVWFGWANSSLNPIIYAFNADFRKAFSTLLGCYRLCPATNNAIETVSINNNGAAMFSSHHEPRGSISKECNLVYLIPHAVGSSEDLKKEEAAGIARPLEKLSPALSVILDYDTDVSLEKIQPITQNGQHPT
UniProt A0A0B5H0X6, entry or part of it: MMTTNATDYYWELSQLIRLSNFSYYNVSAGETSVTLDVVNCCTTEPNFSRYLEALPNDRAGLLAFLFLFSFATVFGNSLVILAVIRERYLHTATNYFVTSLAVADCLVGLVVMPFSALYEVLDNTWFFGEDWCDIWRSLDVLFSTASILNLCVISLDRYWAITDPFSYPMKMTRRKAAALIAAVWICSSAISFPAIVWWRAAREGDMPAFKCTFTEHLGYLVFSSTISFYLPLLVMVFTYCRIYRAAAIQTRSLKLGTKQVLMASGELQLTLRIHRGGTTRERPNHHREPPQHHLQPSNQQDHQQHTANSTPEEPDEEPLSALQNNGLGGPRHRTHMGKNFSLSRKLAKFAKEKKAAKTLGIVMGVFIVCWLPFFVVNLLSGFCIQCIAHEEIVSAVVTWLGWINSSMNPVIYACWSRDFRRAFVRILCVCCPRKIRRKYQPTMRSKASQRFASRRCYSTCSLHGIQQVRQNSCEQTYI

Columns and labels:
[1] = biological target: T1, Human D1 (Homo sapiens, UniProt P21728); assay: Inhibition of dopamine-stimulated cAMP response (HTRF) in HEK293 cells expressing human D1; assay type: cell-based
T1 construct: expressed in transfected cells

[2] = biological target: T2, AaDOP2 (Aedes aegypti, UniProt H6D5H2); assay: cell-based
T2 sequence (H6D5H2 1-476): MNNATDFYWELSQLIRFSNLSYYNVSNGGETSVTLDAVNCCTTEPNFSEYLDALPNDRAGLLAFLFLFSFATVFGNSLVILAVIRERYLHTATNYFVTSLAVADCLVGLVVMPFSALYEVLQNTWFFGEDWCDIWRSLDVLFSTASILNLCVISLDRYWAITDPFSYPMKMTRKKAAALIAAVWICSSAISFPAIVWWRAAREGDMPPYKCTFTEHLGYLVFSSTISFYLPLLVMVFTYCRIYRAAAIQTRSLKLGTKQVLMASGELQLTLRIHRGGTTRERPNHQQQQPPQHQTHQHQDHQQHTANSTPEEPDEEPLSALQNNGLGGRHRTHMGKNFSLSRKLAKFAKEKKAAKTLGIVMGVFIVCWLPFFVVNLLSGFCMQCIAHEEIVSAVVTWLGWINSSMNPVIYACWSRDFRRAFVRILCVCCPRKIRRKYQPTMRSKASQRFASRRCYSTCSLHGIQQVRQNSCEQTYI

[3] = biological target: CqDOP2 (Culex quinquefasciatus, UniProt A0A0B5H0X6); assay: cell-based

`CN(C)CCC=C1c2ccccc2COc2ccccc21` [Doxepin, doxepin hydrochloride] was tested, and the IC50 [1] was 1890 ± 455 nM, the IC50 [2] was 17 ± 4 nM and the IC50 [3] was 8.3 ± 0.6 nM.
